“And” between values parts separate entries of the source, which are not always exact repeats. Equal values may be shown once. The list shows a part of the results.

For this test, the system named is Aedes aegypti neuropeptide Y-like receptor 7 (NPYLR7). Briefly: agonists of mosquito NPYLR7 receptor, primary screen, cell-based, Aedes aegypti, calcium fluorescence, mosquito biting behavior (AID 1259423).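 Note: 0% = vehicle and 100% = reference agonist at the receptor.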 The settings on record: HEK293T NPYLR7/Galpha15, GCaMP6s calcium fluorescence; measured here: Max-Min RFU normalised activation; at 10 µM; stronger effect = higher value.
As for `COc1cccc(N(C(=O)c2cccc(Cl)c2)C2CCNCC2)c1`, the activation turned out to be 11.6%.

For the compound `O=C(NCC1(N2CCCCC2)CCCCC1)c1cn2ccccc2n1`, the activation came to 3.19%.

As to `CC(C)(C)OC(=O)N1CCC(Nc2ccccc2)(C(=O)N2CCC2)CC1`, the activation was -0.459%.

Take `CN(C)C1(CNC(=O)c2ccccn2)CCCCC1`: the activation is 4.05%.

With `O=C(NCC1(N2CCOCC2)CCCCC1)c1ccc(Br)o1`, the activation was 5.33%.

Turning to `Cc1ccc(C(C)CCN(CCCl)CCCl)cc1` (stereo not given), the activation was -8.24%.

As for `O=C(NCC1(N2CCCCC2)CCCCC1)c1cccs1`, the activation is -2.62%.

On to `Cc1nc([N+](=O)[O-])cn1CCC(=O)N[C@@H]1CCCC[C@H]1N1CCOCC1`, for which the activation was 7.32%.

Turning to `c1ccc(NC2CCN(CCc3ccncc3)CC2)cc1`, the activation was 4.01%.

Take `O=C(N[C@@H]1CCCC[C@H]1N1CCOCC1)c1cccc(Br)c1`: the activation is -17.9%.

In the case of `Cc1cc(=O)[nH]c(C(C)N2CCC(Nc3ccccc3)CC2)n1` (stereo not given), the activation was 5.78% and 7.32%.

Regarding `O=C(NCC1(N2CCOCC2)CCCCC1)c1ccc2c3c(cccc13)CC2`, the activation is -1.67%.

`COCC(=O)N(c1cccc(C)c1)C1CCNCC1`: the activation is 10.2%.

As to `O=C(NCC1(N2CCCCC2)CCCCC1)c1cc2c(s1)CCC2`, the activation stood at 20.3%.

With `COc1cc(NC2CCNCC2)cc(OC)c1`, the activation is -6.83%.

For `O=C(NCC1(N2CCCCC2)CCCCC1)c1ccc2c(c1)OCO2`, the activation was determined as 0.707%.

Regarding `O=c1[nH]c2ccccc2n1C1CCN(Cc2ccccn2)CC1`, the activation is -9.47%.

For `Cc1cccc(N(C(=O)c2ccco2)C2CCN(C(=O)OC(C)(C)C)CC2)c1`, the activation was -0.52%.

As to `N#Cc1ccc(C(=O)CBr)cc1`, the activation worked out at 11.5%.

As for `COc1cccc(NC2CCN(Cc3ccncc3)CC2)c1`, the activation came out at 0.519%.

With `O=C(NCC1(N2CCOCC2)CCCCC1)c1ccc(OCC(F)(F)F)nc1`, the activation was -13.8%.

As to `O=c1[nH]c2ccccc2n1C1CCN(Cc2cccc(F)c2F)CC1`, the activation was -3.89%.

With `COc1ccc(N(C(=O)CC(C)C)C2CCNCC2)cc1`, the activation was 9.74%.

For the compound `CCc1ccc(N(C(=O)c2cccc(C)c2)C2CCNCC2)cc1`, the activation was 13.3%.

With `Cc1ccc(N(C(=O)c2ccco2)C2CCNCC2)cc1F`, the activation came to 15.2%.

These data come from PubChem BioAssay AID1259423 (Fisher Drug Discovery Resource Center, 2018).
